In the supplement of paper PMC8007513:
The list shows a part of the results. Single values are uncertain, as repeats are few or missing.

Each compound was assayed on Saccharomyces cerevisiae BY4743 (assay: growth (OD600) with compound + IPBC relative to untreated control; higher = less growth inhibition). Conditions: compound concentration: 133 uM; IPBC concentration: 0.5 ug/ml; 20 h.
Procedure: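 NMCCC compounds (133 uM) combined with IPBC (0.5 ug/ml) against Saccharomyces cerevisiae BY4743 in YPD, 96-well plates. Growth was read as OD600 at 20 h and expressed as % of the untreated control. Single pass.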

Structure (SMILES) | growth [%]
Cc1ccc(NC(=O)CN(C)C(C)c2ccc(-n3cncn3)cc2)cc1C (stereo unspecified) + CCCCNC(=O)OCC#CI [3-iodo-2-propynyl butylcarbamate (IPBC)] | 114
CC(=O)NC1C(=O)N(CCS(=O)(=O)c2ccccc2)c2ccc(F)cc21 (stereo unspecified) + CCCCNC(=O)OCC#CI [3-iodo-2-propynyl butylcarbamate (IPBC)] | 101
O=C(Nc1ccc(Cl)c(C(F)(F)F)c1)c1cc2ncccn2n1 + CCCCNC(=O)OCC#CI [3-iodo-2-propynyl butylcarbamate (IPBC)] | 94.2
CCOc1cc(C(=O)N(C)Cc2nc3ccccc3s2)cc(OCC)c1OCC + CCCCNC(=O)OCC#CI [3-iodo-2-propynyl butylcarbamate (IPBC)] | 105
Cc1[nH]c2ccc(C(=O)OCC(=O)c3cc(C)n(C)c3C)cc2c1C + CCCCNC(=O)OCC#CI [3-iodo-2-propynyl butylcarbamate (IPBC)] | 77.3
COc1ccccc1NC(=O)c1ccc(NC(=O)CSc2nnc(C)n2N)cc1 + CCCCNC(=O)OCC#CI [3-iodo-2-propynyl butylcarbamate (IPBC)] | 103
COCCn1c(Cc2ccccc2)nnc1SCC(=O)N1CCCC1=O + CCCCNC(=O)OCC#CI [3-iodo-2-propynyl butylcarbamate (IPBC)] | 70.9
CNC(=O)NC(=O)CSc1nnc(Nc2ccc(Oc3ccccc3)cc2)s1 + CCCCNC(=O)OCC#CI [3-iodo-2-propynyl butylcarbamate (IPBC)] | 82.8
CCC(C(=O)Nc1nc2nc(C)cc(O)n2n1)c1ccccc1 (stereo unspecified) + CCCCNC(=O)OCC#CI [3-iodo-2-propynyl butylcarbamate (IPBC)] | 99.6
CC1=CC(=NO1)COC(=O)C/2=C/N3CC[S](=O)(=O)/N=C3/C=C2 + CCCCNC(=O)OCC#CI [3-iodo-2-propynyl butylcarbamate (IPBC)] | 94.8
CC(C)CCNC(=O)C(Cc1ccccc1)NS(=O)(=O)c1ccc2c(c1)c(=O)n(C)c(=O)n2C (stereo unspecified) + CCCCNC(=O)OCC#CI [3-iodo-2-propynyl butylcarbamate (IPBC)] | 107
CCc1ccc(NC(=O)CN2C(=O)CSc3ccc(S(=O)(=O)N(C)C)cc32)cc1 + CCCCNC(=O)OCC#CI [3-iodo-2-propynyl butylcarbamate (IPBC)] | 105
CC(=O)Nc1cc(NC(C)=O)cc(C(=O)OC(C)C(=O)N2c3ccccc3NC(=O)C2(C)C)c1 (stereo unspecified) + CCCCNC(=O)OCC#CI [3-iodo-2-propynyl butylcarbamate (IPBC)] | 93.6
CCc1c(C)sc(NS(=O)(=O)c2ccc(NC(C)=O)cc2)c1C#N + CCCCNC(=O)OCC#CI [3-iodo-2-propynyl butylcarbamate (IPBC)] | 102
COc1cc(OC)c(NC(=O)CCNS(=O)(=O)c2ccc3c(c2)CC(C)N3C(C)=O)cc1Cl (stereo unspecified) + CCCCNC(=O)OCC#CI [3-iodo-2-propynyl butylcarbamate (IPBC)] | 105
CCN1CCC(N(Cc2cccc(OC)c2)C(=O)Nc2cc(F)ccc2F)CC1 + CCCCNC(=O)OCC#CI [3-iodo-2-propynyl butylcarbamate (IPBC)] | 102

An excerpt from further up:
Structure (SMILES) | growth [%]
COCCn1c(Cc2ccccc2)nnc1SCC(=O)N1CCCC1=O + CCCCNC(=O)OCC#CI [3-iodo-2-propynyl butylcarbamate (IPBC)] | 70.9
CNC(=O)NC(=O)CSc1nnc(Nc2ccc(Oc3ccccc3)cc2)s1 + CCCCNC(=O)OCC#CI [3-iodo-2-propynyl butylcarbamate (IPBC)] | 82.8

Remaining list, next part.

Structure (SMILES) | growth [%]
Nc1cn(-c2ccc(C(F)(F)F)cn2)nc1Cl + CCCCNC(=O)OCC#CI [3-iodo-2-propynyl butylcarbamate (IPBC)] | 104
COC(=O)c1c(C)nn(-c2ccc(F)cc2)c1-n1cccc1 + CCCCNC(=O)OCC#CI [3-iodo-2-propynyl butylcarbamate (IPBC)] | 85
CCCOc1c(Br)cc(C(=O)OCC(=O)N(C)C2CCS(=O)(=O)C2)cc1OC (stereo unspecified) + CCCCNC(=O)OCC#CI [3-iodo-2-propynyl butylcarbamate (IPBC)] | 97.3
CCOC(=O)c1c(S(=O)(=O)NCC(=O)Nc2nc3ccc(Cl)cc3s2)c(C)n(C)c1C + CCCCNC(=O)OCC#CI [3-iodo-2-propynyl butylcarbamate (IPBC)] | 83.5
Cc1cc(C(=O)O)cc(S(=O)(=O)Nc2ccccc2OC(F)F)c1C + CCCCNC(=O)OCC#CI [3-iodo-2-propynyl butylcarbamate (IPBC)] | 99.1
CCCn1c(O)nnc1SCc1cc(C(=O)OC)c(C)o1 + CCCCNC(=O)OCC#CI [3-iodo-2-propynyl butylcarbamate (IPBC)] | 106
CCn1nc(C)c(CNS(=O)(=O)c2ccc(C)cc2C)c1C + CCCCNC(=O)OCC#CI [3-iodo-2-propynyl butylcarbamate (IPBC)] | 94.2
O=C(NC1(C(F)(F)F)NC(=O)N(Cc2ccncc2)C1=O)c1ccccc1 (stereo unspecified) + CCCCNC(=O)OCC#CI [3-iodo-2-propynyl butylcarbamate (IPBC)] | 102
CCOC(=O)C(NC(=O)c1ccco1)(Nc1sc2c(c1C(=O)OC)CCCC2)C(F)(F)F (stereo unspecified) + CCCCNC(=O)OCC#CI [3-iodo-2-propynyl butylcarbamate (IPBC)] | 97.4
CN1\C(=C/C(=N\[S]1(=O)=O)C2=CC=C(F)C=C2)C(=O)NC3=CC=C(C=C3)C(C)=O + CCCCNC(=O)OCC#CI [3-iodo-2-propynyl butylcarbamate (IPBC)] | 102
Cc1cc(C)cc(N(CCC#N)C(=O)COC(=O)CNC(=O)c2ccc(Br)o2)c1 + CCCCNC(=O)OCC#CI [3-iodo-2-propynyl butylcarbamate (IPBC)] | 103
COC(=O)\C1=C(/C)N\2C(=O)CSC2=N/C1C3=CC(=CC=C3OC)OC (stereo unspecified) + CCCCNC(=O)OCC#CI [3-iodo-2-propynyl butylcarbamate (IPBC)] | 86.3
Cc1nc(-c2ccccc2)sc1C(=O)OC(C)C(=O)N1CCNC1=O (stereo unspecified) + CCCCNC(=O)OCC#CI [3-iodo-2-propynyl butylcarbamate (IPBC)] | 91.4
CCCC/1=C/C(=O)N/2\N=C(/SC2=N1)N(C)CC(=O)NCC3=CC(=CC=C3OC)Br + CCCCNC(=O)OCC#CI [3-iodo-2-propynyl butylcarbamate (IPBC)] | 97.6
Cc1noc(C(=O)N2CCC3(CC2)OCCO3)c1Cl + CCCCNC(=O)OCC#CI [3-iodo-2-propynyl butylcarbamate (IPBC)] | 111
